Experimental data as given in patent publication US20150132307A1.
Numbering of substitutions follows the chain as printed. Results are given in words; binding and its absence hold for the method and conditions named.

T1: Human IL17E (human) (UniProt Q9H293)
T1 sequence: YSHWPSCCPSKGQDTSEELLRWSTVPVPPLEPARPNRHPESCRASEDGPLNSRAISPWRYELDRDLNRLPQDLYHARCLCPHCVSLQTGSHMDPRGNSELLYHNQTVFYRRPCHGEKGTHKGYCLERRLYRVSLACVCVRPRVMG

B1: <IL17> 9C6-2B6-136 (antibody, V domains shown)
VH: EVQLVESGGGLVQPGGSLRLSCAASGFSLDSYGVHWVRQATGKGLEWVSVIWSDGTTTYNSALKSRFTISRENAKNSLYLQMNSLRAGDTAVYYCARDTHYRLYYYAMDYWGQGTTVTVSS
VL: DIVMTQSPLSLPVTPGEPASISCRSSQSLVHSNGDTYFHWYLQKPGQSPQLLIYKVSNRFSGVPDRFSGSGSGTDFTLKISRVEAEDVGVYYCSQTTHAPFTFGQGTKLEIK
B2: <IL17> 9C6-2B6-134 (antibody, V domains shown)
VH: B1 VH with T41P, E72D, A74S, S77T, G88E
VL: B1 VL
B3: <IL17> 9C6-2B6 (antibody, V domains shown)
VH: QVQLKESGPGLVAPSQSLSITCTVSGFSLDSYGVHWVRQPPGKGLEWLVVIWSDGTTTYNSALKSRLSITKDNSKSQVFLKMNSLQTDDTAIYYCARDTHYRLYYYAMDYWGQGTSVTVSS
VL: DVVMTQTPLSLPVSLGDQASISCRSSQSLVHSNGDTYFHWYLQKPGQSPKLLIYKVSNRFSGVPDRFSGSGSGTDFTLKINRVEAEDLGVYFCSQTTHAPFTFGSGTKLEIK

These binders were tested against T1, Human IL17E (human) (assay: ELISA on coated IL-17 subtype; OD relative to IL-17A binding (100)).

binding	Binder
no binding (tested: 10 µg/ml antibody)	B1
no binding (tested: 10 µg/ml antibody)	B2
no binding (tested: 10 µg/ml antibody)	B3
